Source: patent US6124290A, “Polycyclic phthalazine compounds and their use” (Gruenenthal GmbH, priority 1996, dated 2000)

Test system: Enterococcus faecium 64/3
Assay: MIC, micro-broth dilution test according to DIN 58 940 (Part 8)
Type: cell-based
Settings: 64/3, read-out: MIC, Enterococcus faecium 64/3
Protocol: The minimum inhibiting concentration (MIC) of the compounds was tested, in a micro-broth dilution test according to DIN 58 940 (Part 8), against the following bacterial strains: Staphylococcus aureus, strains 8325-4 (a sensitive Staphylococcus aureus strain which is representative of the species), NCTC 6571 (a sensitive international control strain), 108/83 (an "old" MRSA without quinolone-resistance), 134/94 (a "new" MRSA, with quinolone-resistance), Staphylococcus epidermidis CCM 2124 (a sensitive control strain), Enterococcus faecium 70/90 (a vancomycin-resistant strain) and 64/3 (a sensitive strain).

`O=C(O)c1cn(C2CC2)c2cc(N3CCNCC3)c(F)cc2c1=O` [ciprofloxacin] gave an MIC of less than 250 µg/mL.
